Values quoted from earlier work as cited in US12678448B2, “Polymeric carriers for delivery of therapeutic agents” (priority 2020, dated 2026).
At least one compound was matched to its structure with a doubt left.

Test system: CT26 tumor
Details: in vivo; cited from earlier work

For `Cc1ccc(-c2cc(C(F)(F)F)nn2-c2ccc(S(N)(=O)=O)cc2)cc1` [Celecoxib], the “angiogenesis and tumor growth” value is listed as “significantly suppresses angiogenesis and tumor growth in CT26 tumor”.
